From patent US20230077983A1, “METHODS OF TREATING AND PREVENTING ENGRAFTMENT ARRHYTHMIAS” (UNIVERSITY OF WASHINGTON, priority 2020, published 2023) come the findings set out here.

This data set concerns engraftment arrhythmia (EA). To be noted: pig, in vivo. How it is done:
A number of anti-arrhythmic therapies were tested to determine their efficacy in treating and preventing engraftment arrhythmias.
The objective of this study was to identify a pharmacological regimen to attenuate arrhythmias following cardiac remuscularization therapy. This study was designed in two phases: the first, to observe the natural history of EA and screen various antiarrhythmic agents for efficacy and the second, test for efficacy (FIG. 16). All subjects were 30-40 kg castrated male Yucatan minipigs between 6-13 months of age (S&S Farms). In Phase 1, nine subjects underwent cardiac remuscularization therapy with 500×10^6 hESC-CM delivered by direct surgical transepicardial injections or later, by percutaneous transendocardial injections. The first four subjects (one non-infarcted and three infarcted) were followed to learn the natural history of EA and establish clinical endpoints and parameters for the Phase 2 drug trial. The subsequent five subjects underwent systematic dosing with antiarrhythmic agents with continuous electrocardiography (ECG) monitoring to determine effect on rhythm and rate (Table 2).
In addition, the funny current/HCN4 channel antagonist, ivabradine, was tested (Tables 1 and 2). This series was not meant to be definitive but rather to rapidly identify candidate agents. […]

`CCCNCC(O)COc1ccccc1C(=O)CCc1ccccc1` (stereo not shown) [Propafenone]: the “toxicity in the screen” value is given as “substantial gastrointestinal toxicity”.
